Assay results from article PMC11653675.

Columns and labels:
[1] = target: TET1F1-Flag (CXXC region of TET1) (human); assay: co-IP; HEK293T cells co-transfected with PPM1G-HA and Flag-tagged TET1 segments; IP with anti-HA or anti-Flag and protein A/G magnetic beads overnight at 4 °C; lysis buffer 20 mM Tris-HCl pH 7.4, 1 mM EDTA, 150 mM NaCl, 1% NP-40; immunoblot
[2] = target: TET1CD-Flag (TET1 catalytic structural domain, Flag-tagged) (human); assay: as above

B1: PPM1G-HA (PPM1G-hemagglutinin) (enzyme, UniProt O15355 1-546)
chain: MGAYLSQPNTVKCSGDGVGAPRLPLPYGFSAMQGWRVSMEDAHNCIPELDSETAMFSVYDGHGGEEVALYCAKYLPDIIKDQKAYKEGKLQKALEDAFLAIDAKLTTEEVIKELAQIAGRPTEDEDEKEKVADEDDVDNEEAALLHEEATMTIEELLTRYGQNCHKGPPHSKSGGGTGEEPGSQGLNGEAGPEDSTRETPSQENGPTAKAYTGFSSNSERGTEAGQVGEPGIPTGEAGPSCSSASDKLPRVAKSKFFEDSEDESDEAEEEEEDSEECSEEEDGYSSEEAENEEDEDDTEEAEEDDEEEEEEMMVPGMEGKEEPGSDSGTTAVVALIRGKQLIVANAGDSRCVVSEAGKALDMSYDHKPEDEVELARIKNAGGKVTMDGRVNGGLNLSRAIGDHFYKRNKNLPPEEQMISALPDIKVLTLTDDHEFMVIACDGIWNVMSSQEVVDFIQSKISQRDENGELRLLSSIVEELLDQCLAPDTSGDGTGCDNMTCIIICFKPRNTAELQPESGKRKLEEVLSTEGAEENGNSDKKKKAKRD
[1]
  binding: no binding
[2]
  binding: binds

Results are given in words; binding and its absence hold for the method and conditions named. In cells and extracts the contact can be indirect. For some assays here: Binding can be weak; no strength is given. Sequences can lack the tags named with a protein.
